No constants are given. Whether binding was seen depends on the method and setting. In cells and extracts the contact can be indirect. Binding can be weak; no strength is given.
Assays:
[1] = molecular target: T1, protein kinase C iota (PKCiota) (human (endogenous in KYSE510 and KYSE450)) (UniProt P41743); assay: proximity ligation; Duolink In situ Red kit on fixed (4% paraformaldehyde), permeabilised cells; anti-GPX4 (Abcam ab125066) and anti-PKCiota (BD Biosciences 610175) antibodies overnight at 4 °C; confocal microscopy
T1 sequence: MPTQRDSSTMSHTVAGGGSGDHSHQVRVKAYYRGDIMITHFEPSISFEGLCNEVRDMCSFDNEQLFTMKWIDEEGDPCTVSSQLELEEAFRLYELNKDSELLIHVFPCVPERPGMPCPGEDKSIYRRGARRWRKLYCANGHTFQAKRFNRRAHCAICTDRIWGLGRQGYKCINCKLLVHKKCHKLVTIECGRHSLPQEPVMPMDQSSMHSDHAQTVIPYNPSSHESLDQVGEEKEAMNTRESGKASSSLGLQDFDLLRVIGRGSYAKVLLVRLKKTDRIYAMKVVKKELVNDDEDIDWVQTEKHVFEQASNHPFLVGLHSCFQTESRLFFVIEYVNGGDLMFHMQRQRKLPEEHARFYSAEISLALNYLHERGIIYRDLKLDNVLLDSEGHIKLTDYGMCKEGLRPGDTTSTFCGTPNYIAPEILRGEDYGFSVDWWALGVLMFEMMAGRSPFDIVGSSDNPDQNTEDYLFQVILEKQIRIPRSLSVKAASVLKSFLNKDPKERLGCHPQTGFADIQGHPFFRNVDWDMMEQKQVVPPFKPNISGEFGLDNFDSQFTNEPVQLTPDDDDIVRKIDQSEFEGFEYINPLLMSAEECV

[2] = molecular target: T1, protein kinase C iota (PKCiota) (human (endogenous in KYSE510 and KYSE450)); assay: co-IP; endogenous proteins; KYSE510 and KYSE450 cells lysed in non-denaturing IP lysis buffer, 1 h at 4 °C; pre-cleared with protein G-agarose; immunoprecipitation with rabbit anti-PKCiota (Proteintech 13883-1-AP) or rabbit anti-GPX4 (Abcam ab125066) antibody; Western blot

- binding [1]: binds
- binding [2]: binds
Substance: Glutathione peroxidase 4 (GPX4)

Source: paper PMC10812620
